The source of these data is paper PMC7940485.

Chains of the proteins cited; added tags and fusions are not shown.
UniProt Q9NV88: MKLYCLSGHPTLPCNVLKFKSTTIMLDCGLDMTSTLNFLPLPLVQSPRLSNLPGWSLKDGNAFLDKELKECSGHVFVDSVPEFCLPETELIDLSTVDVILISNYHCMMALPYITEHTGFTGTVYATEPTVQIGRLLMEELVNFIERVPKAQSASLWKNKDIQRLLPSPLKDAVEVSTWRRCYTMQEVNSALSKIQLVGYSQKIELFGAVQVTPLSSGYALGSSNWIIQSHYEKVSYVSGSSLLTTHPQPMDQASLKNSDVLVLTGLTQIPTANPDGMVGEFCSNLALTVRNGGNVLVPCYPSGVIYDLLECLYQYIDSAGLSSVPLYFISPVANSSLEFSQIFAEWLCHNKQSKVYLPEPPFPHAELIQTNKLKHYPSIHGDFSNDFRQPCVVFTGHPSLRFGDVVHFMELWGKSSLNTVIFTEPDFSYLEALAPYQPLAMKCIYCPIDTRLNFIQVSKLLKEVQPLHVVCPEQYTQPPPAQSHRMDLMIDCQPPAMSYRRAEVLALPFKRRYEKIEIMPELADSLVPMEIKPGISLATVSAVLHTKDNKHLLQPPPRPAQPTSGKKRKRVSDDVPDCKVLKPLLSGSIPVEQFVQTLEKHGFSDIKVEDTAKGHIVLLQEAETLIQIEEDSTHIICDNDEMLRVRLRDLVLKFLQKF
UniProt Q5TA45: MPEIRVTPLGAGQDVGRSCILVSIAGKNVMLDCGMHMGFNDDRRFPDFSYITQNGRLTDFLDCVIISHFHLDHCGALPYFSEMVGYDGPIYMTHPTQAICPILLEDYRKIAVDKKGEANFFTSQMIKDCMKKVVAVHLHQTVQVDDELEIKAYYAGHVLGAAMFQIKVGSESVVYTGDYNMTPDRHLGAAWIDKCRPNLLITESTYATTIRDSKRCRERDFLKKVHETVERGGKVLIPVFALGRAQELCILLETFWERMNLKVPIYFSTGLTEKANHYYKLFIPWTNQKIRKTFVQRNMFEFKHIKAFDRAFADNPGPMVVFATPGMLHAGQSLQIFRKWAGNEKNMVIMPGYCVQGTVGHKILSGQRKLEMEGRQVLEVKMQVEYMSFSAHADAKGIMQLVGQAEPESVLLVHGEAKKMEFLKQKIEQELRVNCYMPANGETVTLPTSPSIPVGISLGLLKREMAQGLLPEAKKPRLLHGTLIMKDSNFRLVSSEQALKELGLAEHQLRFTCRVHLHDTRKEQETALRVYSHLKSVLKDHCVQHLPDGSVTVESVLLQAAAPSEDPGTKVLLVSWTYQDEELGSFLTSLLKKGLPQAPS

Results are given in words; binding and its absence hold for the method and conditions named. In cells and extracts the contact can be indirect. A yes stands for co-enrichment or nearness to the bait. Other partners may have been found. For part of these data: A no says only that the protein was not detected with the bait. Sequences can lack the tags named with a protein.

Assay [1] addresses T1, GFP-WDR73 full length (stably expressed in podocytes) (human) (UniProt Q6P4I2).
T1 sequence: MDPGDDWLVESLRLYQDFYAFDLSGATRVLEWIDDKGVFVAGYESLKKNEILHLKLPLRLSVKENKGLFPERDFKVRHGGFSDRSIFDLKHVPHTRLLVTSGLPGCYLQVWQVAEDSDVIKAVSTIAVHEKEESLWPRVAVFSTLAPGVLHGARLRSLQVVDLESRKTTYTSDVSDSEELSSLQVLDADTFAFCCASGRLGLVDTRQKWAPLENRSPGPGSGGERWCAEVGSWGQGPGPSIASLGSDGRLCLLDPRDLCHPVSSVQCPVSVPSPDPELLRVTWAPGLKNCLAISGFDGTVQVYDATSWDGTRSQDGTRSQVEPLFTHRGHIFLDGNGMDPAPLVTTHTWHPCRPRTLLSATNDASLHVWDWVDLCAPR
As to the kind of experiment: affinity purification with mass spectrometry; proteomic analysis of GFP immunoprecipitates from a conditionally immortalised human podocyte cell line stably expressing GFP-WDR73 full length.

For assay [2], the target named is T2, GFP-WDR73 full length (stably expressed in podocytes) (human), Q6P4I2.
T2 chain: T1 sequence
The description is as above. As to conditions: remark: other sources report otherwise.

Consider “Integrator complex subunit 9 (endogenous, podocytes) (from UniProt Q9NV88 1-658)”, for which the binding result in assay [1] is “binds”.
On the same count and under the same terms, to “Integrator complex subunit 11 (endogenous, podocytes) (from UniProt Q5TA45 1-600)” belongs “binds”.

B1: TUBB4B, P68371 1-445 (protein)
chain: MREIVHLQAGQCGNQIGAKFWEVISDEHGIDPTGTYHGDSDLQLERINVYYNEATGGKYVPRAVLVDLEPGTMDSVRSGPFGQIFRPDNFVFGQSGAGNNWAKGHYTEGAELVDSVLDVVRKEAESCDCLQGFQLTHSLGGGTGSGMGTLLISKIREEYPDRIMNTFSVVPSPKVSDTVVEPYNATLSVHQLVENTDETYCIDNEALYDICFRTLKLTTPTYGDLNHLVSATMSGVTTCLRFPGQLNADLRKLAVNMVPFPRLHFFMPGFAPLTSRGSQQYRALTVPELTQQMFDAKNMMAACDPRHGRYLTVAAVFRGRMSMKEVDEQMLNVQNKNSSYFVEWIPNNVKTAVCDIPPRGLKMSATFIGNSTAIQELFKRISEQFTAMFRRKAFLHWYTGEGMDEMEFTEAESNMNDLVSEYQQYQDATAEEEGEFEEEAEEEVA
Regarding B1, in assay [2], the binding result was “no binding”.
